# Measured data: PubChem BioAssay AID1508588 (Peter MacCallum Cancer Centre, 2020)
# Aim: 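Knock-downs boosting vemurafenib effects on melanoma cell growth or lactate release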 (primary screen)
# System: human WM266.4 melanoma cells (BRAF V600 mutant)
# Reagent: siRNA pool against human genes, 40 nM
# Time to read-out: 96 h from transfection to read-out
# Treatment: vemurafenib 300 nM (about IC25), added 48 h after transfection, for 48 h; comparison arm got DMSO vehicle only
# Read-out: 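Ratios to non-targeting siRNA for cell gain, counted as DAPI nuclei after minus before drug and averaged over two replicates, and for absorbance-read medium lactate per cell; both binned into fold-change classes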
# Scale: cell gain with vemurafenib: higher = more cell gain than with non-targeting siRNA; lactate per cell with vemurafenib: higher = more lactate made per cell
# Hit rule: 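Enhancement is called by pairing each knock-down's vehicle-arm and drug-arm fold-change classes for viability or glycolysis; which class combinations qualify is not given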
# Calls: active = enhances vemurafenib effect; inactive = no enhancement seen
# The whole screen tested about 18,000 reagents; this is an unselected part. Over the whole deposit, 790 (4.4%) got an active call. 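Calls rest on a combination of fold-change classes in drug and vehicle arms, not all shown here.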
gene knocked down,cell gain with vemurafenib,lactate per cell with vemurafenib,Outcome
AAMDC,0.33,0.99,inactive
ZPBP,0.42,1.38,inactive
ZNF658B,0.96,1.16,inactive
MEF2A,1.04,0.61,inactive
NPHS1,0.71,0.44,active
STRA6,0.35,0.52,inactive
COL6A1,0.11,2.55,inactive
AKR1E2,0.46,0.95,inactive
VEZT,0.44,1.27,inactive
SLC6A5,0.43,0.83,inactive
UTP20,0.41,0.71,inactive
YWHAH,0.36,2,inactive
NUTM1,0.59,0.95,inactive
ZNF800,0.78,1.16,inactive
SLC35B3,0.1,1.46,inactive
SDHA,0.72,0.59,inactive
MRPL33,0.86,1.42,inactive
PAPPA2,1.17,0.67,inactive
PCSK6,0.49,1,inactive
ACKR1,0.38,0.38,inactive
RNF43,1.05,0.78,inactive
CCDC150,0.27,1.87,inactive
ARPIN,-0.08,1.04,inactive
FANCG,1.04,0.94,inactive
RABGGTA,0.63,0.54,inactive
WSB1,0.45,2.02,inactive
UBA6,1.02,0.84,inactive
CCNA1,0.6,1.01,inactive
POLA1,-0.05,1.93,inactive
NUCKS1,0.61,0.52,inactive
VDAC1,0.88,0.4,inactive
IFITM5,0.62,1.2,inactive
HPSE,0.6,0.97,inactive
PLPP3,0.74,1.03,inactive

5 entries from above in another layout.
{"gene knocked down":"POLA1","cell gain with vemurafenib":-0.05,"lactate per cell with vemurafenib":1.93,"Outcome":"inactive"}
{"gene knocked down":"NUCKS1","cell gain with vemurafenib":0.61,"lactate per cell with vemurafenib":0.52,"Outcome":"inactive"}
{"gene knocked down":"VDAC1","cell gain with vemurafenib":0.88,"lactate per cell with vemurafenib":0.4,"Outcome":"inactive"}
{"gene knocked down":"IFITM5","cell gain with vemurafenib":0.62,"lactate per cell with vemurafenib":1.2,"Outcome":"inactive"}
{"gene knocked down":"HPSE","cell gain with vemurafenib":0.6,"lactate per cell with vemurafenib":0.97,"Outcome":"inactive"}
